In publication PMC9436821:
No constants are given. Whether binding was seen depends on the method and setting. In cells and extracts the contact can be indirect. Some binding calls cover weakened binding; strength is not graded here. Where a sequence is shown, tags or fusion partners need not be part of it.

Target: T1, STX17, endogenous, P56962
T1 chain: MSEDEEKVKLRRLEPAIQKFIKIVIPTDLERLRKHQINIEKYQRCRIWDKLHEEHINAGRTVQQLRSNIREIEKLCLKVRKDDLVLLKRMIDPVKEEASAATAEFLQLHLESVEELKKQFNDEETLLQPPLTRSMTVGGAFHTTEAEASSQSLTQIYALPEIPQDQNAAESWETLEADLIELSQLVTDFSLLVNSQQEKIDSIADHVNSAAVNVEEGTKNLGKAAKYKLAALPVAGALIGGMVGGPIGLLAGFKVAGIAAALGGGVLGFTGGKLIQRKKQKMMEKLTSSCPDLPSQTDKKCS
Test: co-IP; cells transfected with FLAG-ULK1-WT or FLAG-ULK1-2A, treated with CQ; IP of STX17 with FLAG blot (A) and IP of FLAG with STX17 blot (B)
Conditions: remark: other sources report otherwise

B1: FLAG-ULK1-WT, O75385 1-1050 (protein)
chain: MEPGRGGTETVGKFEFSRKDLIGHGAFAVVFKGRHREKHDLEVAVKCINKKNLAKSQTLLGKEIKILKELKHENIVALYDFQEMANSVYLVMEYCNGGDLADYLHAMRTLSEDTIRLFLQQIAGAMRLLHSKGIIHRDLKPQNILLSNPAGRRANPNSIRVKIADFGFARYLQSNMMAATLCGSPMYMAPEVIMSQHYDGKADLWSIGTIVYQCLTGKAPFQASSPQDLRLFYEKNKTLVPTIPRETSAPLRQLLLALLQRNHKDRMDFDEFFHHPFLDASPSVRKSPPVPVPSYPSSGSGSSSSSSSTSHLASPPSLGEMQQLQKTLASPADTAGFLHSSRDSGGSKDSSCDTDDFVMVPAQFPGDLVAEAPSAKPPPDSLMCSGSSLVASAGLESHGRTPSPSPPCSSSPSPSGRAGPFSSSRCGASVPIPVPTQVQNYQRIERNLQSPTQFQTPRSSAIRRSGSTSPLGFARASPSPPAHAEHGGVLARKMSLGGGRPYTPSPQVGTIPERPGWSGTPSPQGAEMRGGRSPRPGSSAPEHSPRTSGLGCRLHSAPNLSDLHVVRPKLPKPPTDPLGAVFSPPQASPPQPSHGLQSCRNLRGSPKLPDFLQRNPLPPILGSPTKAVPSFDFPKTPSSQNLLALLARQGVVMTPPRNRTLPDLSEVGPFHGQPLGPGLRPGEDPKGPFGRSFSTSRLTDLLLKAAFGTQAPDPGSTESLQEKPMEIAPSAGFGGSLHPGARAGGTSSPSPVVFTVGSPPSGSTPPQGPRTRMFSAGPTGSASSSARHLVPGPCSEAPAPELPAPGHGCSFADPITANLEGAVTFEAPDLPEETLMEQEHTEILRGLRFTLLFVQHVLEIAALKGSASEAAGGPEYQLQESVVADQISLLSREWGFAEQLVLYLKVAELLSSGLQSAIDQIRAGKLCLSSTVKQVVRRLNELYKASVVSCQGLSLRLQRFFLDKQRLLDRIHSITAERLIFSHAVQMVQSAALDEMFQHREGCVPRYHKALLLLEGLQHMLSDQADIENVTKCKLCIERRLSALLTGICA
- binding: binds
